Here are results for 2 substances from article doi:10.1101/2021.01.04.425182.

Sequences of proteins named here, by UniProt entry; tags and fusion partners are left off. A change or cut given only in a name is not applied to a line headed by its entry.
UniProt P03956: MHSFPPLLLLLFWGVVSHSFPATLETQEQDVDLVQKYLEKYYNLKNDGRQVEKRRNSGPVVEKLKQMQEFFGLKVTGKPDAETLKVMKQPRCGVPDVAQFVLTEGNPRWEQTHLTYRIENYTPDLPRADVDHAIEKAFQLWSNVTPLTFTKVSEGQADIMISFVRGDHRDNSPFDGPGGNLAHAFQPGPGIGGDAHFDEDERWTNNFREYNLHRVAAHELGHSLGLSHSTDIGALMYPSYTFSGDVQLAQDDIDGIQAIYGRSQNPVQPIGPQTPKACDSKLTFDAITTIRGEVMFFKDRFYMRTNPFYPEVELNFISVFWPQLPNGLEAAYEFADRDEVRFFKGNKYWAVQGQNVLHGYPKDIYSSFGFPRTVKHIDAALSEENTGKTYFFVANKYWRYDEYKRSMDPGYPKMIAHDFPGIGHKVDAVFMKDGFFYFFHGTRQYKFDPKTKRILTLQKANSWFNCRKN
UniProt P08254: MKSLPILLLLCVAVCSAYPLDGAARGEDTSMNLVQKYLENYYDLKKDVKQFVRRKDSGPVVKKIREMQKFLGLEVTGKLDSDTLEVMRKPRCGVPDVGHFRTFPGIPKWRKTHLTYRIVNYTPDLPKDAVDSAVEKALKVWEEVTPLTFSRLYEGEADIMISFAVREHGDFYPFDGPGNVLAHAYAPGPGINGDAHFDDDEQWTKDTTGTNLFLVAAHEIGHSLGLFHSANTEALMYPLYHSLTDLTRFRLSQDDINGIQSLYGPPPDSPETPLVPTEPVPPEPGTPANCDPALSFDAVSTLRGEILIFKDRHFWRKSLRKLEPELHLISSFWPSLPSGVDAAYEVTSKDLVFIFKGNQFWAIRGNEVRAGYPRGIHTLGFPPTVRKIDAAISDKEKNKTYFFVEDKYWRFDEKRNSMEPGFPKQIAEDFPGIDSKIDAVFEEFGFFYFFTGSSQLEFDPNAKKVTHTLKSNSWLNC

The target of the assay is T1, prolargin (PRELP), recombinant human (human) (UniProt P51888).
T1 sequence: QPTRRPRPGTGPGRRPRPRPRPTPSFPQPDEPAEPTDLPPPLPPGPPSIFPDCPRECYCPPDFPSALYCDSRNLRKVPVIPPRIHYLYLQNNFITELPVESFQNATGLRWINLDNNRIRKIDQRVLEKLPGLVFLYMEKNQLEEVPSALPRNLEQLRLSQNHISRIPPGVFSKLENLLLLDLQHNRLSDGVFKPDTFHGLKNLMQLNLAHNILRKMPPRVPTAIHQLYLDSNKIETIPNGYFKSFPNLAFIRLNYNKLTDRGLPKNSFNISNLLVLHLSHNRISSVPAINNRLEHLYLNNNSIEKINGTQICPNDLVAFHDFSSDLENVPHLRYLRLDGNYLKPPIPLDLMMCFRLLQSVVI
Kind of assay: affinity purification with mass spectrometry.

Results are given in words; binding and its absence hold for the method and conditions named. In cells and extracts the contact can be indirect. A yes stands for co-enrichment or nearness to the bait. Other partners may have been found.

In the case of “matrix metalloproteinase-1 (MMP1) (from UniProt P03956) (enzyme)”, the binding entry is given as “binds”.
The entry for “matrix metalloproteinase-3 (MMP3) (from UniProt P08254) (enzyme)” is “binds”.
